Test results from PMC3422280.
No constants are given. Whether binding was seen depends on the method and setting. In cells and extracts the contact can be indirect. Some binding calls cover weakened binding; strength is not graded here.

Biological target: endogenous p53 of U2OS cells (human (endogenous in U2OS)) (UniProt P04637)
Experiment: co-IP; U2OS nuclear extracts precipitated with anti-p53 or anti-OKL38 antibody (normal mouse or rabbit IgG as control); blots for p53 and OKL38

B1: endogenous OKL38 of U2OS cells (protein, UniProt Q9UJX0 1-477)
chain: MSSSRKDHLGASSSEPLPVIIVGNGPSGICLSYLLSGYTPYTKPDAIHPHPLLQRKLTEAPGVSILDQDLDYLSEGLEGRSQSPVALLFDALLRPDTDFGGNMKSVLTWKHRKEHAIPHVVLGRNLPGGAWHSIEGSMVILSQGQWMGLPDLEVKDWMQKKRRGLRNSRATAGDIAHYYRDYVVKKGLGHNFVSGAVVTAVEWGTPDPSSCGAQDSSPLFQVSGFLTRNQAQQPFSLWARNVVLATGTFDSPARLGIPGEALPFIHHELSALEAATRVGAVTPASDPVLIIGAGLSAADAVLYARHYNIPVIHAFRRAVDDPGLVFNQLPKMLYPEYHKVHQMMREQSILSPSPYEGYRSLPRHQLLCFKEDCQAVFQDLEGVEKVFGVSLVLVLIGSHPDLSFLPGAGADFAVDPDQPLSAKRNPIDVDPFTYQSTRQEGLYAMGPLAGDNFVRFVQGGALAVASSLLRKETRKPP
binding: binds
